# From the supplement of paper PMC6411743
# By UniProt entry, the sequences of proteins in these tests, tags left out. Where a name states a change or a piece, a line headed by the entry shows the natural chain unless it says otherwise.
# UniProt Q8WWM7: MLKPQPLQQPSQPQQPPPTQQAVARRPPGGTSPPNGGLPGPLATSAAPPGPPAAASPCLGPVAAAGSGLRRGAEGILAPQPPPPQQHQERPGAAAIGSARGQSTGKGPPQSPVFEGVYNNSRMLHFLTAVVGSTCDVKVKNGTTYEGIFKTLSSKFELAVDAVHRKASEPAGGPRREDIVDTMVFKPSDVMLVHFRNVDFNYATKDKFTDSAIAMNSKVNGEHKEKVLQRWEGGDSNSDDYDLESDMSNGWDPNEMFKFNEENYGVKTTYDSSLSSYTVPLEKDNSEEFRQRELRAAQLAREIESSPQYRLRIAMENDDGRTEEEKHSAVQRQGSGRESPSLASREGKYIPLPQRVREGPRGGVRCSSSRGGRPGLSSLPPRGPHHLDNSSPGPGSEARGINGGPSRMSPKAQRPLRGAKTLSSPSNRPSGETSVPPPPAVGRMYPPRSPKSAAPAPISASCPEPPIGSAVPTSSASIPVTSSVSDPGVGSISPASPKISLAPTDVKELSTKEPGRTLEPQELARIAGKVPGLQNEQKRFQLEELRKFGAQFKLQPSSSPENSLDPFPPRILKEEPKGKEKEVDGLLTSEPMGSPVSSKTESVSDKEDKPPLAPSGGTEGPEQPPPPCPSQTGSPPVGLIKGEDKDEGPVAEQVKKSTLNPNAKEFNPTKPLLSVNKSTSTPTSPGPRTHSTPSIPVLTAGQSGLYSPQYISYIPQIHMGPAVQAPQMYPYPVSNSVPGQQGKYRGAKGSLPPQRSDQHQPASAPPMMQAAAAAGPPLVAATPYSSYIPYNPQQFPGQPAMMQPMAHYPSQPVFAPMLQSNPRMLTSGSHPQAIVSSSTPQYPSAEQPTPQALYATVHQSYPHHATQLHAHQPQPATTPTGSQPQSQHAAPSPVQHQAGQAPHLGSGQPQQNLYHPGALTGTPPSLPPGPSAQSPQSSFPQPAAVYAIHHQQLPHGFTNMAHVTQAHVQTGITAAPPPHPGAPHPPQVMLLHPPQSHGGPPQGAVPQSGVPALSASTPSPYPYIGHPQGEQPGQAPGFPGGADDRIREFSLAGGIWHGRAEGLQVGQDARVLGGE
# UniProt Q13485: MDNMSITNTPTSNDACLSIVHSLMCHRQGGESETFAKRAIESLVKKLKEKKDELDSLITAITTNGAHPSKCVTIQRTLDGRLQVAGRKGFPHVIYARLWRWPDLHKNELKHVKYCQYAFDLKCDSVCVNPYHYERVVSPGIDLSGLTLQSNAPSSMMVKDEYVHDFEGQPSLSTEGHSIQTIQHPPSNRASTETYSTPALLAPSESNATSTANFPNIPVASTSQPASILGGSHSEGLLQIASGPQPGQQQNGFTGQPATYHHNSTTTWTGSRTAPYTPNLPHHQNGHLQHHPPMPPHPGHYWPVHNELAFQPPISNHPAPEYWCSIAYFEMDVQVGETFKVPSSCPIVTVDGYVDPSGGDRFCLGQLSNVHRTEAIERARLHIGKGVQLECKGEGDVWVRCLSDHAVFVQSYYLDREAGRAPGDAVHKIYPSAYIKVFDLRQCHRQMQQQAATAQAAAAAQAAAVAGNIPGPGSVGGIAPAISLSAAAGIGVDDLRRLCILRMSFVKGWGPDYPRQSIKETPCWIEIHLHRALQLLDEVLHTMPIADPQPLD
# UniProt Q9UM11, whole entry: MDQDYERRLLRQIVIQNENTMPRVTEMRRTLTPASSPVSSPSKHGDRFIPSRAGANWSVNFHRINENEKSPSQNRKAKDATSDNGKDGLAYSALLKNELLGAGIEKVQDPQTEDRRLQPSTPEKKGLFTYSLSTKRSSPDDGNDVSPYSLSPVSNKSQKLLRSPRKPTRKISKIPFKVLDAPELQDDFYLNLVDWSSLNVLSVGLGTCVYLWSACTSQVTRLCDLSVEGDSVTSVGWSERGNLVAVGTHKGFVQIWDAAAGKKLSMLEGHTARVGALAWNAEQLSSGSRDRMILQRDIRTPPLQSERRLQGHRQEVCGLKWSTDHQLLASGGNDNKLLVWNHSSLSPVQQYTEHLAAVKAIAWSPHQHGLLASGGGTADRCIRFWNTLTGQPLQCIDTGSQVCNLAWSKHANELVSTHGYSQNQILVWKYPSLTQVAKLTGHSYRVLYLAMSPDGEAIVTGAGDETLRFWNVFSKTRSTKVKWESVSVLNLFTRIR
# UniProt Q15831: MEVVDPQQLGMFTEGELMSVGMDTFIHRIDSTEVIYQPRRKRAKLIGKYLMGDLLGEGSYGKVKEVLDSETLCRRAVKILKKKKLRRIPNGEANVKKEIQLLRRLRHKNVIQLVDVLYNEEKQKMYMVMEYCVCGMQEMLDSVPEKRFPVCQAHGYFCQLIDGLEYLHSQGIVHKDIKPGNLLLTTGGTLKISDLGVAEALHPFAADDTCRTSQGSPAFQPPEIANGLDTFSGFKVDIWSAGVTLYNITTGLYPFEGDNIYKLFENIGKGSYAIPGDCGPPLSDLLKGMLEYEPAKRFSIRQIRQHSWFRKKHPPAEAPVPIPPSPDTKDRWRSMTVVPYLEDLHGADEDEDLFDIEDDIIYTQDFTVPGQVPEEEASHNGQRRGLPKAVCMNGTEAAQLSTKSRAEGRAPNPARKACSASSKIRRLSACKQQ
# UniProt Q96AX1: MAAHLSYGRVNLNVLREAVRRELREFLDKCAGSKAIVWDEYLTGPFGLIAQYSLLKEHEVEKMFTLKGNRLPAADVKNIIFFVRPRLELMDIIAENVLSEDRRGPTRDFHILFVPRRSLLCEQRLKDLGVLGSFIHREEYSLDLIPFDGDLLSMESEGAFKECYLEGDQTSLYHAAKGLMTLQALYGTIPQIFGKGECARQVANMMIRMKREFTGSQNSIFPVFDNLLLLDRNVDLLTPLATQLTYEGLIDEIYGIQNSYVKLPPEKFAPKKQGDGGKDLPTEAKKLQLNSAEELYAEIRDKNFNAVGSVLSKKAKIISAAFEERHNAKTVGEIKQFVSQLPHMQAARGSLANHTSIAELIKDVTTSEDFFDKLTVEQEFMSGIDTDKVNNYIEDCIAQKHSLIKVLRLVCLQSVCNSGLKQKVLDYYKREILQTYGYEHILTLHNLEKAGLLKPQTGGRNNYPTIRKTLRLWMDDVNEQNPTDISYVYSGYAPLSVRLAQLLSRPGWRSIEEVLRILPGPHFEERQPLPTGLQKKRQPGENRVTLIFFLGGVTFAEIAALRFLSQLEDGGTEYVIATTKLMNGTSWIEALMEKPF
# UniProt Q9NTK5, whole entry, looked up: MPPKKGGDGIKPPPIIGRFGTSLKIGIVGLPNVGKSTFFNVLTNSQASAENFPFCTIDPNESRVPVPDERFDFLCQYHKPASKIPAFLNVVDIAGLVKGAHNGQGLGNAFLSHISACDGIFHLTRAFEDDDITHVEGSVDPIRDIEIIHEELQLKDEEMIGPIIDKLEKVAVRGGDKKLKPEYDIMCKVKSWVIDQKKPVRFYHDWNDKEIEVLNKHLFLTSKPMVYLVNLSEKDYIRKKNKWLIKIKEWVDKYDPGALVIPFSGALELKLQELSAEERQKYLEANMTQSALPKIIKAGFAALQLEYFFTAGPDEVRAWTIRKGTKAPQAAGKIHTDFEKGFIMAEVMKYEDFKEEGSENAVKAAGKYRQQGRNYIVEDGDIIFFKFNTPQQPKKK
# UniProt Q9Y421: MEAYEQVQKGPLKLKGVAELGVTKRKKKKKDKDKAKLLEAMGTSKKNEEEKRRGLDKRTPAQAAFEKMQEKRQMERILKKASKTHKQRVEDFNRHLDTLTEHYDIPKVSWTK
# UniProt Q12968: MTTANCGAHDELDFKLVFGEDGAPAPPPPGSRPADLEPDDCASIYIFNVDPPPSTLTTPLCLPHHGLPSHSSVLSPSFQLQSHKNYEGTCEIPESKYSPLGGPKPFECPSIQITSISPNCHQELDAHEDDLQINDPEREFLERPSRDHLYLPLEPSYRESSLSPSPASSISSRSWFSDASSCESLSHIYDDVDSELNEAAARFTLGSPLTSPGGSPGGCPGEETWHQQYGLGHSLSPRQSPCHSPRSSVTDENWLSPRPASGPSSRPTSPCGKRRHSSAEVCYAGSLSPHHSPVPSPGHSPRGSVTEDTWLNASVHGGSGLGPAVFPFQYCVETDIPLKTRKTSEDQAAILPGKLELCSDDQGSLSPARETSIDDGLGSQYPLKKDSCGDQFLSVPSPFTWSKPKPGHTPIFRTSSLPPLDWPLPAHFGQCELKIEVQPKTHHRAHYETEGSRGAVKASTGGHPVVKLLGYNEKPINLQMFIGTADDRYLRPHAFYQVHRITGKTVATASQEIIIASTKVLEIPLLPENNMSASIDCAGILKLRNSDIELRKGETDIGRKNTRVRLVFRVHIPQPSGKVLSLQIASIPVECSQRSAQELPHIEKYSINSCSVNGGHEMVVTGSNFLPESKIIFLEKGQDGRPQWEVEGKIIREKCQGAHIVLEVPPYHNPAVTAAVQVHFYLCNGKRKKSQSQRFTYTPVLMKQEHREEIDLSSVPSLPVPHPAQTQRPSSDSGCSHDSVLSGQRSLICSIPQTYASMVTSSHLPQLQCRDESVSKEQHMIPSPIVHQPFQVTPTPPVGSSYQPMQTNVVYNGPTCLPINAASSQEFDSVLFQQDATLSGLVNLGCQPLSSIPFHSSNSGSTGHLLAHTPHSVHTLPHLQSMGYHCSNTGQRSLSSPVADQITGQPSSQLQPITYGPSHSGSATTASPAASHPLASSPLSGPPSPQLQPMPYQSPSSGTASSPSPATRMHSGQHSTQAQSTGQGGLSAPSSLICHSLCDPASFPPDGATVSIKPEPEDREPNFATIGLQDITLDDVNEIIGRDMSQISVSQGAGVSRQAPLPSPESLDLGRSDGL
# UniProt Q96QT4: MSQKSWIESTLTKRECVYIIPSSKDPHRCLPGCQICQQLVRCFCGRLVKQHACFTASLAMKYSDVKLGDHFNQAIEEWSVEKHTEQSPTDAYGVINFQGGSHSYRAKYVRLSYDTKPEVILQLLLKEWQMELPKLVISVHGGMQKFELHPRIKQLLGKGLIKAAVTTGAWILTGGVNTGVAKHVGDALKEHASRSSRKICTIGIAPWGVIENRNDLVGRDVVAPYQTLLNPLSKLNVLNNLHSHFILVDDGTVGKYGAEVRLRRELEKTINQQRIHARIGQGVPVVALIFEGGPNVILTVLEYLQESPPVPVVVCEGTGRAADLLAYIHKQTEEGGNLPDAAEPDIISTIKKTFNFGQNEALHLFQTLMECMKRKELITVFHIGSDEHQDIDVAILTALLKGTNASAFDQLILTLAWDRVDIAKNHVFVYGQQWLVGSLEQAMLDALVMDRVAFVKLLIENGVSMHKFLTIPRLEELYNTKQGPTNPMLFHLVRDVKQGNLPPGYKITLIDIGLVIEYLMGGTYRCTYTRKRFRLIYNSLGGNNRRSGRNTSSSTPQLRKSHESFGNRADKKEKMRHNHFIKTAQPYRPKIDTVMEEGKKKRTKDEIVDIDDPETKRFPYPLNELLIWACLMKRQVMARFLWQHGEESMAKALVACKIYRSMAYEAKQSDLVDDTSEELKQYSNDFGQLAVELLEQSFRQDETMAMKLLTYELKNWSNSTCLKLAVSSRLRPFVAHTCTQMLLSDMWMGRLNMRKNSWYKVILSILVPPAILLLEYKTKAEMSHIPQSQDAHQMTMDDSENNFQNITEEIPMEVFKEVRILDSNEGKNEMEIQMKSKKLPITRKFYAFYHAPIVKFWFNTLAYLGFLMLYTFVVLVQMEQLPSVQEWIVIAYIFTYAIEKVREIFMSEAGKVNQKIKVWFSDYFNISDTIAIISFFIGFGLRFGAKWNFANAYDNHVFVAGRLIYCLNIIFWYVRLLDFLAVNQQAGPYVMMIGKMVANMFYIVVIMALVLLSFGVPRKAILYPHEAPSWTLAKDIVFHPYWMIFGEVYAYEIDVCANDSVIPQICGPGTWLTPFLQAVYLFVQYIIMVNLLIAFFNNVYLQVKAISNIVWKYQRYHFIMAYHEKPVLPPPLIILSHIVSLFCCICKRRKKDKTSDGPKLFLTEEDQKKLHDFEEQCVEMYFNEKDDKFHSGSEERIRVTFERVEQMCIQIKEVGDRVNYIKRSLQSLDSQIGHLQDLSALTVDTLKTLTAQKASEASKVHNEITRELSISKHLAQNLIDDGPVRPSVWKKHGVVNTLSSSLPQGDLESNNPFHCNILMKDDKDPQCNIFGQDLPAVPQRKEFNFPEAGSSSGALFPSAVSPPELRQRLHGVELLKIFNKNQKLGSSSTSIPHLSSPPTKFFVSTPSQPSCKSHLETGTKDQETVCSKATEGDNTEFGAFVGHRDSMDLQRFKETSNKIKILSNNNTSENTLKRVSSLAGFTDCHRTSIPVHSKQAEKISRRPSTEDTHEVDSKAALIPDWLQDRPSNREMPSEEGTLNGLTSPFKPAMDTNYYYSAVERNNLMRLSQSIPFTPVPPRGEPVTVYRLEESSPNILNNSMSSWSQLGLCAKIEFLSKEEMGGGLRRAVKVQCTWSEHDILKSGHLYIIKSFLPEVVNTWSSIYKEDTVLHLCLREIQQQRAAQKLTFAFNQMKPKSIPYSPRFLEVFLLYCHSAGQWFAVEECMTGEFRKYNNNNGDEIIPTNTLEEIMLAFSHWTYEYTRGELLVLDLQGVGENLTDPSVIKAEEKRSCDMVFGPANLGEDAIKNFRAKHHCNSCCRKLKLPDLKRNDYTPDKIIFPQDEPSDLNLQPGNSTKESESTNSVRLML
# ± gives the standard deviation of the averaged measurements. The entries are a selection whose mix differs from that of the whole data set. Most values lie at the level of the controls, where differences are scatter.
# Compound: Nc1ncnc2c1ncn2[C@@H]1O[C@H](COP(=O)(O)OP(=O)(O)OP(=O)(O)O)[C@@H](O)[C@H]1O [adenosine triphosphate]
# Test: NP40-soluble protein abundance relative to vehicle (solubility fold change) (ratio); higher = more soluble protein in presence of ATP
# How it was run: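 Values are fold changes against the detergent-processed vehicle, based on vsn-normalised intensities. Jurkat crude lysate was treated at eight concentrations from 0.1 to 10 mM (10 min at room temperature, then 3 min at 37 °C), solubilised with 0.8% NP40 and benzonase, ultracentrifuged and analysed by TMT-labelled LC-MS/MS over three independent experiments.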
Target,NP40-soluble protein abundance (concentration: 0.1mM),NP40-soluble protein abundance (concentration: 0.5mM)
H3BUF6 and related entries (UniProt Q8WWM7),0.974 ± 0.03,0.991 ± 0.036
J3QRU1 and related entries (UniProt P07947),1.02 ± 0.088,1.07 ± 0.099
M0QY01 and related entries (UniProt Q9UBC2),0.958 ± 0.024,0.965 ± 0.028
I3L397 and related entries (UniProt P63241),0.951 ± 0.12,0.968 ± 0.051
K7EIU8 and related entries (UniProt Q13485),0.998 ± 0.031,1.01 ± 0.078
J3KNS1 and related entries (UniProt Q9UPW5),1.03 ± 0.04,1.06 ± 0.018
K7EJH8 and related entries (UniProt O43707),0.898 ± 0.053,0.876 ± 0.066
K7EQT1 and related entries (UniProt Q9UM11),0.969 ± 0.092,0.975 ± 0.15
K7EK78 and related entries (UniProt Q86Y39+K7EQ77+K7EP35+K7EMT4+K7EK78),1.15 ± 0.19,1.17 ± 0.3
H0YDM4 and related entries (UniProt Q86VS8),0.924 ± 0.04,0.929 ± 0.035
H3BMQ0 and related entries (UniProt P49815),1 ± 0.027,1.04 ± 0.048
K7EP59 and related entries (UniProt Q15831),0.969 ± 0.12,1.01 ± 0.084
H0YNP9 and related entries (UniProt Q8N4P3),1.12 ± 0.31,1.06 ± 0.14
J3QS41 and related entries (UniProt P42694),1.04 ± 0.035,1.01 ± 0.041
I3L182 and related entries (UniProt Q9UQ35),1.02 ± 0.057,1.23 ± 0.045
H0YJF3 and related entries (UniProt Q13686),0.996 ± 0.051,0.881 ± 0.12
H3BMM5 and related entries (UniProt Q96AX1+H3BMM5),1.02 ± 0.037,1.02 ± 0.039
G5EA36 and related entries (UniProt P30260),0.997 ± 0.048,1 ± 0.076
H3BSM7 and related entries (UniProt Q96GQ5),1.04 ± 0.061,1.03 ± 0.051
J3QQ67 and related entries (UniProt Q07020),0.969 ± 0.093,1.04 ± 0.2
I3L2N2 and related entries (UniProt O14641),0.95 ± 0.013,1 ± 0.053
J3KQ32 and related entries (UniProt Q9NTK5),1.03 ± 0.12,1.06 ± 0.077
K7EKE6 and related entries (UniProt P36776),1.06 ± 0.043,1.04 ± 0.035
J3QRS3 and related entries (UniProt P19105+O14950+J3QRS3),0.902 ± 0.12,0.899 ± 0.15

Target,NP40-soluble protein abundance (concentration: 0.1mM),NP40-soluble protein abundance (concentration: 0.5mM)
M0QYZ2 and related entries (UniProt P53680),1.02 ± 0.089,1.08 ± 0.092
K7EIY1 and related entries (UniProt Q9Y421),0.793 ± 0.084,0.741 ± 0.12
H0Y4T4 and related entries (UniProt Q5SW79),0.994 ± 0.025,1.04 ± 0.054
L0R819 (UniProt Q9NWL6),0.957 ± 0.15,0.913 ± 0.13
J3KR72 and related entries (UniProt P49848),1.01 ± 0.045,1.09 ± 0.1
M0QYA8 and related entries (UniProt Q8IV63),1 ± 0.018,1.32 ± 0.018
J3KSB5 and related entries (UniProt P21359),1.02 ± 0.069,1.07 ± 0.12
H0YAH3 and related entries (UniProt Q86SF2),1.06 ± 0.039,1.06 ± 0.063
I3L3K7 and related entries (UniProt Q12968),1.06 ± 0.018,1.08 ± 0.024
H3BPE7 and related entries (UniProt P35637),0.951 ± 0.043,0.97 ± 0.0019
J3QTA2 and related entries (UniProt Q99933),1.08 ± 0.074,1.04 ± 0.086
H0YCX2 and related entries (UniProt Q96PV7),1.05 ± 0.075,1.11 ± 0.2
J3KPT4 and related entries (UniProt Q9H4I3),1.04 ± 0.037,1.04 ± 0.064
H7C561 and related entries (UniProt Q15637),0.975 ± 0.036,0.99 ± 0.019
J3KSW2 and related entries (UniProt Q9UNA4),0.98 ± 0.16,1.07 ± 0.13
J3KP26 and related entries (UniProt Q86W74),1.05 ± 0.04,0.975 ± 0.074
G5E9C2 and related entries (UniProt Q15653),0.9994 ± 0.0038,0.998 ± 0.02
H0YLN8 and related entries (UniProt Q96QT4),1.038 ± 0.0011,1.07 ± 0.063
H6UMI1 and related entries (UniProt O95166),0.923 ± 0.065,0.987 ± 0.022
H0Y9I3 and related entries (UniProt Q9HAV4),1.02 ± 0.055,0.998 ± 0.029
H0Y860 and related entries (UniProt Q9P246),1.07 ± 0.079,1.09 ± 0.043
J3KPD3 and related entries (UniProt Q9Y580),0.989 ± 0.027,0.951 ± 0.068
K7EL68 and related entries (UniProt Q16543),0.995 ± 0.022,0.991 ± 0.042

# In another format: entries from further up
Target | NP40-soluble protein abundance (concentration: 0.1mM) | NP40-soluble protein abundance (concentration: 0.5mM)
I3L3K7 and related entries (UniProt Q12968) | 1.06 ± 0.018 | 1.08 ± 0.024
H3BPE7 and related entries (UniProt P35637) | 0.951 ± 0.043 | 0.97 ± 0.0019
J3QTA2 and related entries (UniProt Q99933) | 1.08 ± 0.074 | 1.04 ± 0.086
H0YCX2 and related entries (UniProt Q96PV7) | 1.05 ± 0.075 | 1.11 ± 0.2
J3KPT4 and related entries (UniProt Q9H4I3) | 1.04 ± 0.037 | 1.04 ± 0.064
H7C561 and related entries (UniProt Q15637) | 0.975 ± 0.036 | 0.99 ± 0.019
J3KSW2 and related entries (UniProt Q9UNA4) | 0.98 ± 0.16 | 1.07 ± 0.13
J3KP26 and related entries (UniProt Q86W74) | 1.05 ± 0.04 | 0.975 ± 0.074
G5E9C2 and related entries (UniProt Q15653) | 0.9994 ± 0.0038 | 0.998 ± 0.02
H0YLN8 and related entries (UniProt Q96QT4) | 1.038 ± 0.0011 | 1.07 ± 0.063
H6UMI1 and related entries (UniProt O95166) | 0.923 ± 0.065 | 0.987 ± 0.022
